Experimental data reported in US20090196876A1.

Chains of the proteins cited; added tags and fusions are not shown. Lines headed by an entry give the natural chain unless they say otherwise; changes in a name come on top.
UniProt P55075: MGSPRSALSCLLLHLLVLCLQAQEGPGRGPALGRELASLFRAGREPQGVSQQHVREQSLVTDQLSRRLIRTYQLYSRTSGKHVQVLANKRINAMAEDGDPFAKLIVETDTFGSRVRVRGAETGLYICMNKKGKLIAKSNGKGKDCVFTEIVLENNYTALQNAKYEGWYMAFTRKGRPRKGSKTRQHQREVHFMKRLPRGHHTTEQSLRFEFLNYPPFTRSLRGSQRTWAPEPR

Molecular target: T1, UNQ1900-ECD-Fc (human) (UniProt Q6UXG8)
T1 sequence: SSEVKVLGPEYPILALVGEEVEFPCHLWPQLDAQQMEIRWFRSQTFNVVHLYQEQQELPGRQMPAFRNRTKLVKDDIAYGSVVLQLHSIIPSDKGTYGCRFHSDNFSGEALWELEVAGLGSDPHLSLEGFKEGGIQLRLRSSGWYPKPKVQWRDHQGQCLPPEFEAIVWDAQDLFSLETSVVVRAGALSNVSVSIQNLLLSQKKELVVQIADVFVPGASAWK
Assay: BiaCore; UNQ1900-ECD-Fc coated on chip, 275 proteins tested as analytes

binding: binds
Substance: FGF8 (from UniProt P55075) (ligand)

Results are given in words; binding and its absence hold for the method and conditions named. A result given as binding can be weak or reduced; the word gives no strength. Sequences can lack the tags named with a protein.
